Reference: publication PMC6362812

Target: T1, MBP-tagged Hs NOT4 (full length, bacterially expressed) (human) (UniProt O95628)
T1 sequence: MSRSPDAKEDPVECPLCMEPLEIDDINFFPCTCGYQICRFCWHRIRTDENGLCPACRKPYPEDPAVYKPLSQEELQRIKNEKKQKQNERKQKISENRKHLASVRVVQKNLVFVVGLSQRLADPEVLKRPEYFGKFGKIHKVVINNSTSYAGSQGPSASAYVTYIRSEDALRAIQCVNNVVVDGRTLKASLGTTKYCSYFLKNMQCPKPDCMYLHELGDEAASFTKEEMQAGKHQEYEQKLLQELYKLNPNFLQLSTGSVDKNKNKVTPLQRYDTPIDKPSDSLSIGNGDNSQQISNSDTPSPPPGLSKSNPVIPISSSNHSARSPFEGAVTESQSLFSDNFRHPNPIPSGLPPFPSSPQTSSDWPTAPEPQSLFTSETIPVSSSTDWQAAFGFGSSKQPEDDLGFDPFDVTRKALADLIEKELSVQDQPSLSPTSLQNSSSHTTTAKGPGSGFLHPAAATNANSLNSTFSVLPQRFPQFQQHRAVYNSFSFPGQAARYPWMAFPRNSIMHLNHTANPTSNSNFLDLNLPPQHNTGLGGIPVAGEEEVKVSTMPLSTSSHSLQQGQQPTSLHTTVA
Test: pull-down; MBP pull-down: MBP-tagged Hs NOT4 or fragments (isolated on Ni-NTA) immobilised on amylose resin, excess of purified CCR4–NOT proteins, 1 h, 50 mM Na/HEPES pH 7.5, 300 mM NaCl, 2 mM β-mercaptoethanol; maltose elution, SDS-PAGE, Coomassie; both purified

binding: binds weakly
Substance: NOT2–NOT3 heterodimer (human) (complex)

Results are given in words; binding and its absence hold for the method and conditions named. Binding calls can cover weak binding; strength is not graded here. Tags and fused reporters may be left off the sequences shown.
